Measurements reported in article doi:10.1101/2024.11.05.621850.
Read-outs that look alike come from different tables or passages of the source. Results are given in words; binding and its absence hold for the method and conditions named. Binding seen in cells or lysates may run through a third protein. A yes stands for co-enrichment or nearness to the bait. Other partners may have been found. For some assays here: Tags and fused reporters may be left off the sequences shown. Blank lines part the entries; values can stand above or below the molecule they belong to.

Protein sequences, listed by entry. Tags and fused reporters are not part of them.
UniProt Q9UL25: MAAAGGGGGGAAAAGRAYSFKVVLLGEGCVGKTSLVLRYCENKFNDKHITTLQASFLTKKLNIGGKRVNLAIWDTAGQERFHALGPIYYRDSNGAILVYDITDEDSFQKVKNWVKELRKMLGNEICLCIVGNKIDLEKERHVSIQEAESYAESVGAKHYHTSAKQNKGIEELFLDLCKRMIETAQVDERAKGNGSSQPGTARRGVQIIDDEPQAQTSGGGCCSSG
UniProt P51149: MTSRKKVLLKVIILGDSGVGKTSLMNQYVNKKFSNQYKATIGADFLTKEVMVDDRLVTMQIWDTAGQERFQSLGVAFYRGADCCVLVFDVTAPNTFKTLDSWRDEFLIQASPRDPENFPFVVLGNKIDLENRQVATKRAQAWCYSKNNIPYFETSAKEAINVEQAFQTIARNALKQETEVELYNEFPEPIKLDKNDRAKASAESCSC
UniProt Q15286: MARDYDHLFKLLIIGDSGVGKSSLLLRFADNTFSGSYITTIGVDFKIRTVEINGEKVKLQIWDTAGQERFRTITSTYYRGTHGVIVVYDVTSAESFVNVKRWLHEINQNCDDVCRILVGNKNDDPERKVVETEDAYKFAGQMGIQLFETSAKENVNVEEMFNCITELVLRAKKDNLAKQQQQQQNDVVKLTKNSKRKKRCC
UniProt Q96Q42: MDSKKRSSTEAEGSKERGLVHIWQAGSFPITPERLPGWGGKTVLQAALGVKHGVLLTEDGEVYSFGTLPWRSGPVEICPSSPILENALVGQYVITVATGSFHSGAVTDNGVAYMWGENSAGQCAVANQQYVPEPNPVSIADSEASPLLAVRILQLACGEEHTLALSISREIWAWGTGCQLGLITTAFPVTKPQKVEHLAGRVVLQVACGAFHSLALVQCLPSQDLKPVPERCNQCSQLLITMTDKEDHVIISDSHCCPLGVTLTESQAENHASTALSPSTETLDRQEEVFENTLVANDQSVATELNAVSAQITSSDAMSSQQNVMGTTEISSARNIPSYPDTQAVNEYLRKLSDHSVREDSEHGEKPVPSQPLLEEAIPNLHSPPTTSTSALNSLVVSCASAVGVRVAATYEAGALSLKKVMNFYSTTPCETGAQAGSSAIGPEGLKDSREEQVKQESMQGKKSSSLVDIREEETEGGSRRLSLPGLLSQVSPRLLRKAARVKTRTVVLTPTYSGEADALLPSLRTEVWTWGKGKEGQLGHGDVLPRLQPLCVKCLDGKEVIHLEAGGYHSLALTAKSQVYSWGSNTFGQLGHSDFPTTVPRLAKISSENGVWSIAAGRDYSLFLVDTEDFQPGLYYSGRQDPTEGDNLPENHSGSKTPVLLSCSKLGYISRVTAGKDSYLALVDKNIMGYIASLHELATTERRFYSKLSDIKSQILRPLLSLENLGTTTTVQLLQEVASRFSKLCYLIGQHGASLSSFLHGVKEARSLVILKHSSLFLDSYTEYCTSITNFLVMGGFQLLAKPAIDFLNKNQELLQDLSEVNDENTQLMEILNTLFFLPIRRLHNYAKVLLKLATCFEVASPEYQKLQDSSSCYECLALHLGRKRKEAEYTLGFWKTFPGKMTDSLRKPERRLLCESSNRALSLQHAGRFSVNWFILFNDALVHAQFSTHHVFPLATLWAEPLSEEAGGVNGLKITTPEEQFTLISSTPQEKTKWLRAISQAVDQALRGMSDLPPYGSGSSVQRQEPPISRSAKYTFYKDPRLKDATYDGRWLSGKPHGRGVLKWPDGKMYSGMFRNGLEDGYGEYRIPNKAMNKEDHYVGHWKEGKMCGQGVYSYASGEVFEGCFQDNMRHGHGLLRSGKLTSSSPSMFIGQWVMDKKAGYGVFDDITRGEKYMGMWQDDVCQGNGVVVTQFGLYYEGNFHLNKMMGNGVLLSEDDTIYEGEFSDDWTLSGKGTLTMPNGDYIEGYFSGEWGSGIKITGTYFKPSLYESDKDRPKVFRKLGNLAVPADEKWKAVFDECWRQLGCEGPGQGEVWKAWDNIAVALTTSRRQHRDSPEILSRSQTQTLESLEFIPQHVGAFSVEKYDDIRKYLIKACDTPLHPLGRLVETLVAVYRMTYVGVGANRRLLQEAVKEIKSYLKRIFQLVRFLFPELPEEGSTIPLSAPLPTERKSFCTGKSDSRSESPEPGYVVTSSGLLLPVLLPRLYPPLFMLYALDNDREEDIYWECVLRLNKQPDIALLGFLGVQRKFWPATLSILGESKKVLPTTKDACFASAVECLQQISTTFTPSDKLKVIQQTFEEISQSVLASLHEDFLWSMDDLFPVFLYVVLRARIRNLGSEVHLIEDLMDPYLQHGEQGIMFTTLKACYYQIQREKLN
UniProt P48553: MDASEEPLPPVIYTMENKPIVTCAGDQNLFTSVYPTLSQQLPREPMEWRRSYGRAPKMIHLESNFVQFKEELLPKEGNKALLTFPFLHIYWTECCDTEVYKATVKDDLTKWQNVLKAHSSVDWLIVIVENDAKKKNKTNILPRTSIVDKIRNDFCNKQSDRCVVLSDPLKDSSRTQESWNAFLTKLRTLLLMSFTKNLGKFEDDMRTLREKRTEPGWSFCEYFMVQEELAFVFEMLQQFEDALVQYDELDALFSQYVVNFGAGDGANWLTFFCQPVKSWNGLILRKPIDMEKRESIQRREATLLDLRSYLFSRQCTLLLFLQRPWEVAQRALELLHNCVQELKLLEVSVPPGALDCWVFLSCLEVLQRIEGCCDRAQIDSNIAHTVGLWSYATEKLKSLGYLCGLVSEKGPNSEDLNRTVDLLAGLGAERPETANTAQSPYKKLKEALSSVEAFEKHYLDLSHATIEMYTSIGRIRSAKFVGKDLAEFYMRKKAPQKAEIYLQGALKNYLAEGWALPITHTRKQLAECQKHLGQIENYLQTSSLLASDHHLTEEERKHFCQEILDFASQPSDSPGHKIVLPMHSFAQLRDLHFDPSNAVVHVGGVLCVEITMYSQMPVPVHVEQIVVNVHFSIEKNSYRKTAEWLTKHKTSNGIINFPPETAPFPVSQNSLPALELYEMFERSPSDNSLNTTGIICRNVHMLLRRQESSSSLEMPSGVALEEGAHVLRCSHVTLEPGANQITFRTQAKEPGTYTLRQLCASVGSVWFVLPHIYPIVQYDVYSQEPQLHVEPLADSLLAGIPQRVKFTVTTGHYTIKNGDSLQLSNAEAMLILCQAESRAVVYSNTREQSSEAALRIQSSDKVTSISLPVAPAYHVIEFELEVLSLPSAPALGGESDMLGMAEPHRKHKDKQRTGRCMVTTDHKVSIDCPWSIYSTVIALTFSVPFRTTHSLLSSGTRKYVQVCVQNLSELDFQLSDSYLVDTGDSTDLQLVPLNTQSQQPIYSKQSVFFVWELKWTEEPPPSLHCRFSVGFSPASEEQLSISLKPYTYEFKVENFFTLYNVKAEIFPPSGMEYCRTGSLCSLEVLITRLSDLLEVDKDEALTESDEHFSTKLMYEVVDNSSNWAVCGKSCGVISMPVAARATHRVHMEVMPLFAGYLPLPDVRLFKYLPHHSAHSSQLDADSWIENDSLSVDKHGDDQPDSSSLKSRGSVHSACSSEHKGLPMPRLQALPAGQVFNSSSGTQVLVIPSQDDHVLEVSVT
UniProt Q92609: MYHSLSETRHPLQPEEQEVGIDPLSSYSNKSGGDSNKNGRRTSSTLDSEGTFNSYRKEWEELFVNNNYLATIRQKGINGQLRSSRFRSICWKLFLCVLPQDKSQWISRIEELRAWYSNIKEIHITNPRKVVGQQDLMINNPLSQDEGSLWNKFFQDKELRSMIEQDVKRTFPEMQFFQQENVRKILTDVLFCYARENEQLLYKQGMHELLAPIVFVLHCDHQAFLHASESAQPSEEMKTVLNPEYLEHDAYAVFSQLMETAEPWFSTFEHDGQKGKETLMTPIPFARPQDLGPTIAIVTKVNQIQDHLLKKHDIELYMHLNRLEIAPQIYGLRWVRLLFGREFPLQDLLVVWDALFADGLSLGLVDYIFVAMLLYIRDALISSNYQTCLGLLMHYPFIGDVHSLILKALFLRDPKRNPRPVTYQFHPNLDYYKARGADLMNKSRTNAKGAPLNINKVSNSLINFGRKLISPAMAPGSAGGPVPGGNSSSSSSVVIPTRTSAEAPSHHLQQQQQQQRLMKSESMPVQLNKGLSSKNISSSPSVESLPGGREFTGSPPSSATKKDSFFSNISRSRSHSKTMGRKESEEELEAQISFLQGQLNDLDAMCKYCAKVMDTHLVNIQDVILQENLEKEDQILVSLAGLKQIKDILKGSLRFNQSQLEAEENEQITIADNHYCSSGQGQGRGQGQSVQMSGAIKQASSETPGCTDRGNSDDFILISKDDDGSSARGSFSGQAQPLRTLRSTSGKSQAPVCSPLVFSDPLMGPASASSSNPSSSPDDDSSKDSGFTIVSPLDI
UniProt Q96NW4: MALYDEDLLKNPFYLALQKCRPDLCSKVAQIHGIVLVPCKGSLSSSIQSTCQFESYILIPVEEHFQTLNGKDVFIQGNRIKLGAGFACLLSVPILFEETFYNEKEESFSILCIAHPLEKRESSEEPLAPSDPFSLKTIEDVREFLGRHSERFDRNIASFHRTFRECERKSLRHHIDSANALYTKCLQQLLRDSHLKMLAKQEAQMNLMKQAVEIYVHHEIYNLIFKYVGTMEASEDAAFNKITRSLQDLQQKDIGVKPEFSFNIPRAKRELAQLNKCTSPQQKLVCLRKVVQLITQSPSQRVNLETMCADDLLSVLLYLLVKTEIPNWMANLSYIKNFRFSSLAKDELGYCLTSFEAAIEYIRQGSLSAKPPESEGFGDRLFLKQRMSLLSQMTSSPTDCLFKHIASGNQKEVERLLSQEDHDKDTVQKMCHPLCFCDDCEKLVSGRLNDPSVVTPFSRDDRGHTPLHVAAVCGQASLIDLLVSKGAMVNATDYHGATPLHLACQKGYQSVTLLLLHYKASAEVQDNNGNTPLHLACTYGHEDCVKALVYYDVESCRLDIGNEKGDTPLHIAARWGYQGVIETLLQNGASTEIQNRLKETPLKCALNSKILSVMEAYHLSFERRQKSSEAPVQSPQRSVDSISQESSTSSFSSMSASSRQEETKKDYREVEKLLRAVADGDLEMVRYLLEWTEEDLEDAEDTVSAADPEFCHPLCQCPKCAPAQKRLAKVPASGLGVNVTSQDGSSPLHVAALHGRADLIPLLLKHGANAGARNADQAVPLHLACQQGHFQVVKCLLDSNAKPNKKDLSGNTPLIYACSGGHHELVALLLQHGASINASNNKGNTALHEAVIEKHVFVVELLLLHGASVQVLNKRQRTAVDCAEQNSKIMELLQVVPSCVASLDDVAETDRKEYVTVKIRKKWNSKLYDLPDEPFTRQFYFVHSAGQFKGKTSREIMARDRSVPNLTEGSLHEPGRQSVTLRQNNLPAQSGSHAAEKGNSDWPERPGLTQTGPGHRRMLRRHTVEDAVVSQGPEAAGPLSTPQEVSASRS
UniProt Q9Y5R8: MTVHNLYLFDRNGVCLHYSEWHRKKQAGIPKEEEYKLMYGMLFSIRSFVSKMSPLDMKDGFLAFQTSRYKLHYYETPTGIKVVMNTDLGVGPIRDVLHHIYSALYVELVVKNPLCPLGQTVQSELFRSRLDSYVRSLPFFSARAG

Key:
Assay in all cases: proximity labelling
[1] = molecular target: T1, MYC:APEX2:RAB25 (human) (UniProt P57735)
T1 sequence: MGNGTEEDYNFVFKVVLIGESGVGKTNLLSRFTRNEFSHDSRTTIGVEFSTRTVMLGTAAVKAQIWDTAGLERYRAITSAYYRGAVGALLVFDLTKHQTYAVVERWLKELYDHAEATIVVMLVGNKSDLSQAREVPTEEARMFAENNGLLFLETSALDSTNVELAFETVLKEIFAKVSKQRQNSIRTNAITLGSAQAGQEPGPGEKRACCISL

[2] = molecular target: APEX2:RAB21 (human) (UniProt Q9UL25)
[3] = molecular target: T2, MYC:APEX2:RAB32 (human) (UniProt Q13637)
T2 sequence: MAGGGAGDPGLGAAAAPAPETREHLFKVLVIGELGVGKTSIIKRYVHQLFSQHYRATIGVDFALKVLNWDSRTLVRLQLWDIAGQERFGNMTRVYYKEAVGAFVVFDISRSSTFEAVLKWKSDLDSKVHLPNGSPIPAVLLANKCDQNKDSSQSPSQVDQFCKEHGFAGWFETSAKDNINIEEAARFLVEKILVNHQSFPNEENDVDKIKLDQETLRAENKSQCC

[4] = molecular target: APEX2:RAB7A (human) (UniProt P51149)
[5] = molecular target: MYC:APEX2:RAB35 (human) (UniProt Q15286)
[6] = molecular target: T1, MYC:APEX2:RAB25 (human); remark: listed apart in the source
[7] = molecular target: T2, MYC:APEX2:RAB32 (human); remark: listed apart in the source

Molecule: ALS2 (endogenous) (from UniProt Q96Q42 1-1657)
binding [1]: binds

Molecule: TRAPPC10 (from UniProt P48553 1-1259)
binding [1]: binds

Molecule: TBC1D5 (from UniProt Q92609 1-795)
binding [4]: binds

B1: RN-TRE (USP6-NL) (protein, UniProt Q92738 1-828)
chain: MNSDQDVALKLAQERAEIVAKYDRGREGAEIEPWEDADYLVYKVTDRFGFLHEEELPDHNVAVERQKHLEIERTTKWLKMLKGWEKYKNTEKFHRRIYKGIPLQLRGEVWALLLEIPKMKEETRDLYSKLKHRARGCSPDIRQIDLDVNRTFRDHIMFRDRYGVKQQSLFHVLAAYSIYNTEVGYCQGMSQITALLLMYMNEEDAFWALVKLFSGPKHAMHGFFVQGFPKLLRFQEHHEKILNKFLSKLKQHLDSQEIYTSFYTMKWFFQCFLDRTPFTLNLRIWDIYIFEGERVLTAMSYTILKLHKKHLMKLSMEELVEFFQETLAKDFFFEDDFVIEQLQISMTELKRAKLDLPEPGKEDEYPKKPLGQLPPELQSWGVHHLSNGQRSVGRPSPLASGRRESGAPHRRHEHSPHPQSRTGTPERAQPPRRKSVEEESKKLKDEADFQRKLPSGPQDSSRQYNHAAANQNSNATSNIRKEFVPKWNKPSDVSATERTAKYTMEGKGRAAHPALAVTVPGPAEVRVSNVRPKMKALDAEDGKRGSTASQYDNVPGPELDSGASVEEALERAYSQSPRHALYPPSPRKHAEPSSSPSKVSNKFTFKVQPPSHARYPSQLDGEARGLAHPPSYSNPPVYHGNSPKHFPTANSSFASPQFSPGTQLNPSRRPHGSTLSVSASPEKSYSRPSPLVLPSSRIEVLPVDTGAGGYSGNSGSPKNGKLIIPPVDYLPDNRTWSEVSYTYRPETQGQSWTRDASRGNLPKYSAFQLAPFQDHGLPAVSVDSPVRYKASPAAEDASPSGYPYSGPPPPAYHYRNRDGLSIQESVLL
binding [5]: binds

B2: DENND6A (endogenous) (protein, UniProt Q8IWF6 1-608)
chain: MALRGPAGLGPGSRRPLDEAVAGAEGREAPALVAAGGAPEDDEEDDGRGRGLLRWDSFSAWLHCVCVVGFDLELGQAVEVIYPQHSKLTDREKTNICYLSFPDSNSGCLGDTQFCFRFRQSSGRRVSLHCLLDQFDKDLPVYLKKDPAYFYGYVYFRQVRDKTLKRGYFQKSLVLISKLPYIHFFHTVLKQIAPEYFEKNEPYLEAACNDVDRWPAPVPGKTLHLPIMGVVMKVRIPTCHDKPGTTQIVQLTQQVDTNISVILPTVHEVDIFRCFCPVFLHSQMLWELVLLGEPLVVMAPSPSESSETVLALVNCISPLKYFSDFRPYFTIHDSEFKEYTTRTQAPPSVILGVTNPFFAKTLQHWPHIIRIGDLKPTGEIPKQVKVKKLKNLKTLDSKPGVYTSYKPYLNRDEEIIKQLQKGVQQKRPSEAQSVILRRYFLELTQSFIIPLERYVASLMPLQKSISPWKSPPQLRQFLPEEFMKTLEKTGPQLTSRIKGDWIGLYRHFLKSPNFDGWFKTRRKEMTQKLEALHLEALCEEDLLLWIQKHTEVETVDLVLKLKNKLLQADREHLPVKPDTMEKLRTHIDAIILALPEDLQGILLKTGMT
binding [6]: binds

B3: TBC1D10B (protein, UniProt Q4KMP7 1-808)
chain: METGTAPLVAPPRRHGAPAAPSPPPRGSRAGPVVVVAPGPPVTTATSAPVTLVAPGEARPAWVPGSAETSAPAPAPAPAPAPAVTGSTVVVLTLEASPEAPKPQLPSGPESPEPAAVAGVETSRALAAGADSPKTEEARPSPAPGPGTPTGTPTRTPSRTAPGALTAKPPLAPKPGTTVASGVTARSASGQVTGGHGAAAATSASAGQAPEDPSGPGTGPSGTCEAPVAVVTVTPAPEPAENSQDLGSTSSLGPGISGPRGQAPDTLSYLDSVSLMSGTLESLADDVSSMGSDSEINGLALRKTDKYGFLGGSQYSGSLESSIPVDVARQRELKWLDMFSNWDKWLSRRFQKVKLRCRKGIPSSLRAKAWQYLSNSKELLEQNPGKFEELERAPGDPKWLDVIEKDLHRQFPFHEMFAARGGHGQQDLYRILKAYTIYRPDEGYCQAQAPVAAVLLMHMPAEQAFWCLVQICDKYLPGYYSAGLEAIQLDGEIFFALLRRASPLAHRHLRRQRIDPVLYMTEWFMCIFARTLPWASVLRVWDMFFCEGVKIIFRVALVLLRHTLGSVEKLRSCQGMYETMEQLRNLPQQCMQEDFLVHEVTNLPVTEALIERENAAQLKKWRETRGELQYRPSRRLHGSRAIHEERRRQQPPLGPSSSLLSLPGLKSRGSRAAGGAPSPPPPVRRASAGPAPGPVVTAEGLHPSLPSPTGNSTPLGSSKETRKQEKERQKQEKERQKQEKEREKERQKQEKEREKQEKEREKQEKERQKQEKKAQGRKLSLRRKADGPPGPHDGGDRPSAEARQDAYF
binding [5]: binds

B4: TBC1D8B (protein, UniProt Q0IIM8 1-1120)
chain: MWLKPEEVLLKNALKLWLMERSNDYFVLQRRRGYGEEGGGGLTGLLVGTLDSVLDSTAKVAPFRILHQTPDSQVYLSIACGANREEITKHWDWLEQNIMKTLSVFDSNEDITNFVQGKIRGLIAEEGKHCFAKEDDPEKFREALLKFEKCFGLPEKEKLVTYYSCSYWKGRVPCQGWLYLSTNFLSFYSFLLGSEIKLIISWDEVSKLEKTSNVILTESIHVCSQGENHYFSMFLHINQTYLLMEQLANYAIRRLFDKETFDNDPVLYNPLQITKRGLENRAHSEQFNAFFRLPKGESLKEVHECFLWVPFSHFNTHGKMCISENYICFASQDGNQCSVIIPLREVLAIDKTNDSSKSVIISIKGKTAFRFHEVKDFEQLVAKLRLRCGAASTQYHDISTELAISSESTEPSDNFEVQSLTSQRECSKTVNTEALMTVFHPQNLETLNSKMLKEKMKEQSWKILFAECGRGVSMFRTKKTRDLVVRGIPETLRGELWMLFSGAVNDMATNPDYYTEVVEQSLGTCNLATEEIERDLRRSLPEHPAFQSDTGISALRRVLTAYAYRNPKIGYCQAMNILTSVLLLYAKEEEAFWLLVAVCERMLPDYFNRRIIGALVDQAVFEELIRDHLPQLTEHMTDMTFFSSVSLSWFLTLFISVLPIESAVNVVDCFFYDGIKAILQLGLAILDYNLDKLLTCKDDAEAVTALNRFFDNVTNKDSPLPSNVQQGSNVSDEKTSHTRVDITDLIRESNEKYGNIRYEDIHSMRCRNRLYVIQTLEETTKQNVLRVVSQDVKLSLQELDELYVIFKKELFLSCYWCLGCPVLKHHDPSLPYLEQYQIDCQQFRALYHLLSPWAHSANKDSLALWTFRLLDENSDCLINFKEFSSAIDIMYNGSFTEKLKLLFKLHIPPAYTEVKSKDASKGDELSKEELLYFSQLHVSKPANEKEAESAKHSPEKGKGKIDIQAYLSQWQDELFKKEENIKDLPRMNQSQFIQFSKTLYNLFHEDPEEESLYQAIAVVTSLLLRMEEVGRKLHSPTSSAKGFSGTVCGSGGPSEEKTGSHLEKDPCSFREEPQWSFAFEQILASLLNEPALVRFFEKPIDVKAKLENARISQLRSRTKM
binding [6]: binds

Further lines, results first:

binding [2]: binds
binding [3]: binds
Molecule: VARP (from UniProt Q96NW4 1-1050)

binding [1]: binds
Molecule: TRAPPC1 (from UniProt Q9Y5R8 1-145)

binding [7]: binds
B5: GRAB (endogenous) (protein, UniProt Q8TBN0 1-382)
chain: MWSGPPQPDQGLPPPLAAVPVPWKSTDPCQGHRESPGALVETSAGEEAQGQEGPAAAQLDVLRLRSSSMEIREKGSEFLKEELHRAQKELKLKDEECERLSKVREQLEQELEELTASLFEEAHKMVREANMKQAASEKQLKEARGKIDMLQAEVTALKTLVITSTPASPNRELHPQLLSPTKAGPRKGHSRHKSTSSTLCPAVCPAAGHTLTPDREGKEVDTILFAEFQAWRESPTLDKTCPFLERVYREDVGPCLDFTMQELSVLVRAAVEDNTLTIEPVASQTLPTVKVAEVDCSSTNTCALSGLTRTCRHRIRLGDSKSHYYISPSSRARITAVCNFFTYIRYIQQGLVRQDAEPMFWEIMRLRKEMSLAKLGFFPQEA
